Holding throughout (assay): co-IP; lysates of transfected cells (HEK293) with ectopically expressed HA-USP11 and Myc-SFTPC constructs, precipitated with HA or Myc antibody at 4 °C overnight, protein A/G agarose, western blot
A general note: Immunoblotting shows a protein as a band on a membrane.

By UniProt entry, the sequences of proteins in these tests, tags left out. Where a name states a change or a piece, a line headed by the entry shows the natural chain unless it says otherwise.
UniProt P11686: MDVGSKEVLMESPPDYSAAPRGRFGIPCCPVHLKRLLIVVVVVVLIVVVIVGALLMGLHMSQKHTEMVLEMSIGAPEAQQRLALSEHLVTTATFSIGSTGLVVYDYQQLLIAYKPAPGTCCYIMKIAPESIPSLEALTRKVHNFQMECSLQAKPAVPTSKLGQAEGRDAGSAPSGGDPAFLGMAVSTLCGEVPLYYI
UniProt P51784: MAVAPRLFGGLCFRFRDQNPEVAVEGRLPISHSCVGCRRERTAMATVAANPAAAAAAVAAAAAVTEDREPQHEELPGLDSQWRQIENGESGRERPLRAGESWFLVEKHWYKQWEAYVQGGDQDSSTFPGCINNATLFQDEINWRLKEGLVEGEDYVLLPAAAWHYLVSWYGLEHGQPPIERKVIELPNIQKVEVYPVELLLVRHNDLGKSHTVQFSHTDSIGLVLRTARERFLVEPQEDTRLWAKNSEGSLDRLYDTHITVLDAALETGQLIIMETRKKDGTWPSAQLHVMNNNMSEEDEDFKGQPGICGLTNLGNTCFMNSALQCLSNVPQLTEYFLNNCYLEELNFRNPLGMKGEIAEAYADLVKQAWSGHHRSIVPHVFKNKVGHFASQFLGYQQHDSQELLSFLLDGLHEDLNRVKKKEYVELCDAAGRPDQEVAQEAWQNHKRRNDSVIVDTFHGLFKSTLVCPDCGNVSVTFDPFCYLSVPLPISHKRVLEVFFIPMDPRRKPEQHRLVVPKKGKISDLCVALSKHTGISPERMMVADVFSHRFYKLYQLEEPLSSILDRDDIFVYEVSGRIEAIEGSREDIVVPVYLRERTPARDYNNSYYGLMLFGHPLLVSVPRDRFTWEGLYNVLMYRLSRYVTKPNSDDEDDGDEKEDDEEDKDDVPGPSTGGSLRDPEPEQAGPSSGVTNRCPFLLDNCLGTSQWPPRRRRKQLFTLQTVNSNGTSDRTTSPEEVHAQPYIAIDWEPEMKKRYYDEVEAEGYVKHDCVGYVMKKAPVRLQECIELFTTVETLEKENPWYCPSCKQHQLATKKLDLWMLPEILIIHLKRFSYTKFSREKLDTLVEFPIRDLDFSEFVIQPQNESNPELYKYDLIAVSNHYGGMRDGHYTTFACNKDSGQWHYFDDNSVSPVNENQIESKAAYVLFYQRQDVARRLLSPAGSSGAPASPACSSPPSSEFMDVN

Assay [1] has as its target Myc-SFTPC^I73T (human) (UniProt P11686).
For assay [2], the target named is Myc-SFTPC (human) (UniProt P11686).
The target in assay [3] is HA-USP11 (UniProt P51784).

No constants are given. Whether binding was seen depends on the method and setting. Binding seen in cells or lysates may run through a third protein. A result given as binding can be weak or reduced; the word gives no strength.

Turning to “HA-USP11 (from UniProt P51784 1-963) (enzyme)”, the binding result in assay [1] and in assay [2] was “binds” throughout. As for Myc-SFTPC (from UniProt P11686), the binding entry in assay [3] was “binds”.

Source of the values: article PMC11984411.
